Values quoted from earlier work in US11806359B2 (priority 2020, dated 2023).
At least one structure is not confirmed: it was looked up by name or label, or the drawing left a doubt.

Tests used:
Details in all cases: cited from earlier work
HSV-1 strain 1C = tested on: HSV-1 strain 1C
influenza A H7N1 = tested on: influenza A H7N1
ECHO 6 = tested on: ECHO 6
HIV-1 = tested on: HIV-1

C=C(C)[C@@H]1CC[C@]2(C(=O)O)CC[C@]3(C)[C@H](CC[C@@H]4[C@@]5(C)CC[C@H](O)C(C)(C)[C@@H]5CC[C@]43C)[C@@H]12 [Betulinic acid]
some anti-viral activity: anti-viral activity against HSV-1 strain 1C (HSV-1 strain 1C) | anti-viral activity against influenza A H7N1 (influenza A H7N1) | anti-viral activity against ECHO 6 (ECHO 6) | anti-viral activity against HIV-1 (HIV-1)
